{
  "sequences": {"note": "Protein sequences, listed by entry. Tags and fused reporters are not part of them. Lines headed by an entry give the natural chain unless they say otherwise; changes in a name come on top.", "UniProt Q07812": "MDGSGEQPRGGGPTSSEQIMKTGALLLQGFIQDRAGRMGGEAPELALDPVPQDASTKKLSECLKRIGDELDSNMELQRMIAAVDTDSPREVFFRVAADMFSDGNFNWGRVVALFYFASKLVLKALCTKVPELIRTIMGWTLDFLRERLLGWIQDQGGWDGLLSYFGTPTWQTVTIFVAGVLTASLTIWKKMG"},
  "source": "paper PMC7501853",
  "biological_target": "nesprin-2-Giant (mouse (endogenous in MEFs)) (UniProt Q6ZWQ0)",
  "assay": "proximity ligation; Duolink PLA in fixed Bax/Bak DKO MEFs transiently transfected, with Q-VD-OPH; anti-Bax 6A7 (GFP-Bax, FLAG-Bax) or anti-His (His-Bax) with anti-nesprin-2G or pan anti-nesprin-2 K2 Ab; dots normalised to cell size, relative to control-transfected cells",
  "note": "These are yes or no findings as the source states them, for the method shown. Binding seen in cells or lysates may run through a third protein. Binding can be weak; no strength is given.",
  "data": [
    {"substance": "GFP-Bax ∆α2 (from UniProt Q07812)", "values": [
      {"measurement": "binding", "result": "binds"}
    ]}
  ]
}
